Test results published in paper PMC4740771, “Nucleotide-dependent assembly of the peroxisomal receptor export complex” (Scientific Reports, 2016).
No constants are given. Whether binding was seen depends on the method and setting. Some binding calls cover weakened binding; strength is not graded here. Sequences can lack the tags named with a protein.

B1: HisPex6p (natural protein, S. cerevisiae, UniProt P33760 1-1030, looked up)
chain: MKASLTFSLSGIYAPCSISRDIYLEYGDKKAECLYGTIRLPQYGPGCTPGKIVHCVLDDSLPFCSIVVPSKLFGFMPTQPTMDFCYFEPILDNVVPVLDSVTFLINEQLYSKLMDLPQEMQQIQFLHYKYNINSMETVVHSRDILTSGLCQILNCSPFPQGLVDFTETQLILVNDTEQKLSALKYANEDEEYALPKIGTNSALSIDLESLPCTISRDLLRPAPHINDDNSIYAFTDAETLLRLDVTSGSFITVSNMGCVRLVKLFVLLLPNGFKKRTIYAPPKIIASFPDCSVVTISKSNIGHTDIPIANQVFISRVGGWLQSQKCFQNIILTTLKKFFSESKRILCQNDLIPIAFDSSMADLNIAEENDESDDEDELGQYYKNDSLVWFFVTSAELDCFSKDNSHFIIDPNRTKLITTNITNRRPLPLSRSNLQRYYGFAETFYYDLHIFPYVRQLVNILETSFNCSQRGITLNASVLLHSTTNNVGKATMVRFASKYLGIHLLEIDCLSLTSNSRQLDSTSKIIGYIRAKCENVLPYASPAVIFLAHLDSILLDVNANQDPEAIKLQKSINFEMSKLLDDFTFKFPGTTFVGSVNNIDNVPSSFRSHMRFEILVPVPSEAQRLRIFQWYLSSHELNRDVQQKVPVSYMDNISFSSLSSYSAGLTPLDIKSIVETARMTATARFYQESKKCGWLPQSILITQEDLSKATSKARNEFSVSIGAPQIPNVTWDDIGGIDFVKGEILDTIDMPLKHPELFTSGMKKRSGILFYGPPGTGKTLMAKAIATNFSLNFFSVKGPELLNMYIGESEANVRRVFQKAREAKPCVIFFDEIDSVAPKRGNQGDSGGVMDRIVSQLLAELDGMSTDADGVFVIGATNRPDLLDEALLRPGRFDKLLYLGIPDTDTKQLNILEALTRKFVLDNDVKLIELAKLCPFNYTGADFYALCSDAMLNAMSRIARMVEKKVSQHNELTGENISTRRWFDKIATKEDTKVVVKMEDFLKAQEQLTPSVSRAELNHYEAVRANFEGA
notes: Pex6p, type II AAA-ATPase peroxin of yeast; also called single Pex6p; isolated Pex6p; source: E. coli Tuner (DE3), purified (NiNTA-agarose; with HisPex1pGST also GSH-agarose and size exclusion); not shown: His6, N-terminal, kept

Tests used:
[1] = target: T1, HisPex1p(E798Q) released from its GST fusion (S. cerevisiae) (UniProt P24004); assay: SEC; complexes of wild-type or Walker B mutant Pex1p with Pex6p purified by tandem affinity chromatography and size exclusion chromatography; nucleotide not stated for this experiment; both purified
T1 sequence: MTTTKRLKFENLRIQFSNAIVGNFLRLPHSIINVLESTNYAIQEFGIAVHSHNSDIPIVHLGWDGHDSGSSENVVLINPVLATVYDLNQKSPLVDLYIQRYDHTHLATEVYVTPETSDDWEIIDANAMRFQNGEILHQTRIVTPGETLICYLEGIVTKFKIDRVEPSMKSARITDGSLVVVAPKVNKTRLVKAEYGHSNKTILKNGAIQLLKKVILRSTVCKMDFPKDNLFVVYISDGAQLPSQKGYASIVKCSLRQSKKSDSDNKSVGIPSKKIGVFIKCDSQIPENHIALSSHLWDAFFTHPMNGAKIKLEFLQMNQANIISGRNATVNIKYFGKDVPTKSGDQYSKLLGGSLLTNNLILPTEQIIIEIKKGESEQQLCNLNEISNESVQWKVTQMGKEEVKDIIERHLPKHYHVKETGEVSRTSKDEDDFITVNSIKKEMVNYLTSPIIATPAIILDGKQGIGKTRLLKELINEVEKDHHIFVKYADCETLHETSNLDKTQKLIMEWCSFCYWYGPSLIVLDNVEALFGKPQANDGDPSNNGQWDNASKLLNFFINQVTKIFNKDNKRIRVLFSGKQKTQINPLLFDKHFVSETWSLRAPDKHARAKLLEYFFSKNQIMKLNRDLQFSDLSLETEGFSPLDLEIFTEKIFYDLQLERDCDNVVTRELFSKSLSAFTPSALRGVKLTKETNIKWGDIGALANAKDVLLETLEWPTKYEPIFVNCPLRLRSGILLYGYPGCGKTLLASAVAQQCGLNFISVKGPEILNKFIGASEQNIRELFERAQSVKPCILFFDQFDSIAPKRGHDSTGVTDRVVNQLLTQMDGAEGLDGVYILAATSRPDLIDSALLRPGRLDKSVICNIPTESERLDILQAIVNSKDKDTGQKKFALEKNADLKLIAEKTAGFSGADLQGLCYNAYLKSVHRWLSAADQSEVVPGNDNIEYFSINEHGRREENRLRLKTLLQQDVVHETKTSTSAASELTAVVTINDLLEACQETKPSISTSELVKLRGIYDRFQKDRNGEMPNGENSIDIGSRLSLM

HisPex6p [2] = target: B1; assay: SEC; second gel filtration of the purified heterohexameric complexes after incubation at 37 °C; both purified
HisPex6p [3] = target: B1; assay: SEC; as a1 but isolated and run in the presence of 5 mM ADP instead of ATP; both purified

Binder: B1
binding [1]: binds | binding (HisPex6p [2]): no binding | binding (HisPex6p [3]): no binding
